From the supplement of paper PMC10849652
This is one part of the list.

By UniProt entry, the sequences of proteins in these tests, tags left out. Where a name states a change or a piece, a line headed by the entry shows the natural chain unless it says otherwise.
UniProt P51795: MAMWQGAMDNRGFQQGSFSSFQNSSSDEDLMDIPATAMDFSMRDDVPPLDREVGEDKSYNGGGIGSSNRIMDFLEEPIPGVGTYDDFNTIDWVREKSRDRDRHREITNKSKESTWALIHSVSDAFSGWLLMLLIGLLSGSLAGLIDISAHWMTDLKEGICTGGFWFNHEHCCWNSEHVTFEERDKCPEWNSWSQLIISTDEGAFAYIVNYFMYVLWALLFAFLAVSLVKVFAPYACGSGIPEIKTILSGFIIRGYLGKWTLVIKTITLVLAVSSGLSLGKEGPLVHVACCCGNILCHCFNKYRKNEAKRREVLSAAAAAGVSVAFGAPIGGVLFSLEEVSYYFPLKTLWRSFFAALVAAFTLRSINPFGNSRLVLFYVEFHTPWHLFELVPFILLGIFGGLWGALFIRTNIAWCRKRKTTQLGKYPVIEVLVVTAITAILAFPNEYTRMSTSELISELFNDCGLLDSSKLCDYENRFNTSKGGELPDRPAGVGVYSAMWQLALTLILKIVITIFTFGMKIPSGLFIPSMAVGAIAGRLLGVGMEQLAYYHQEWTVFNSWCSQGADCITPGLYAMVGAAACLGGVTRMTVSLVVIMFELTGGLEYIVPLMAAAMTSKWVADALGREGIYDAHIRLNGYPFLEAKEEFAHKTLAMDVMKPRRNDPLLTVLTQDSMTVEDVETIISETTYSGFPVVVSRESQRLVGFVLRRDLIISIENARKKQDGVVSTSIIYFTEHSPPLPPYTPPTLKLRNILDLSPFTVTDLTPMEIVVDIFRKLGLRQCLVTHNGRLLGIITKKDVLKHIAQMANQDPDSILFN
UniProt Q13286: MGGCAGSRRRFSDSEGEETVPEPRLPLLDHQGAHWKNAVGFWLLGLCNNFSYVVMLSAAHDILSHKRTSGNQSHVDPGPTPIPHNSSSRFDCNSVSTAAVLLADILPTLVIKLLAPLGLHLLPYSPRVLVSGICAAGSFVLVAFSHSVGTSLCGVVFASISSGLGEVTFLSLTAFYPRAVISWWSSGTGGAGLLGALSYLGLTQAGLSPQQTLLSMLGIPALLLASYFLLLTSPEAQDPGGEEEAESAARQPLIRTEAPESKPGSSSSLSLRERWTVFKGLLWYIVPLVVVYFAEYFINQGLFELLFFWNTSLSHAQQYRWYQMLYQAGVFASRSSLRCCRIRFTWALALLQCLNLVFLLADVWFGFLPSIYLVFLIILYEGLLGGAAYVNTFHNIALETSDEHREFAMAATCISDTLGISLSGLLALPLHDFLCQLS
UniProt P49759: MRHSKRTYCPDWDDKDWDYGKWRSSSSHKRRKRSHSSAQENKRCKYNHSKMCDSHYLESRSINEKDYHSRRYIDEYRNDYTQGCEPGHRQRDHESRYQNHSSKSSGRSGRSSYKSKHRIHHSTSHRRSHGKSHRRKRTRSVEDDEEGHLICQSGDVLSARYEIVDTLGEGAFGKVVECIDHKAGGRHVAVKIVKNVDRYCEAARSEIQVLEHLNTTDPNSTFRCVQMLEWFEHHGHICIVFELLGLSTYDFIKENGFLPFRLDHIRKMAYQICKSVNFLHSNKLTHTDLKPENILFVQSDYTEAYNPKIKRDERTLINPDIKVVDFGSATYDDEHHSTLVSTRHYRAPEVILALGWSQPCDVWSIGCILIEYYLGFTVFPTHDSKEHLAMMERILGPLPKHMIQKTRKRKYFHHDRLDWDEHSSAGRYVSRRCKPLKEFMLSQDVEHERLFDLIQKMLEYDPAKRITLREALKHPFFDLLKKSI
UniProt P56277: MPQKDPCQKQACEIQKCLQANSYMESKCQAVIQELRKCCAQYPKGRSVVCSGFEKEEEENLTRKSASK
UniProt Q9UDT6: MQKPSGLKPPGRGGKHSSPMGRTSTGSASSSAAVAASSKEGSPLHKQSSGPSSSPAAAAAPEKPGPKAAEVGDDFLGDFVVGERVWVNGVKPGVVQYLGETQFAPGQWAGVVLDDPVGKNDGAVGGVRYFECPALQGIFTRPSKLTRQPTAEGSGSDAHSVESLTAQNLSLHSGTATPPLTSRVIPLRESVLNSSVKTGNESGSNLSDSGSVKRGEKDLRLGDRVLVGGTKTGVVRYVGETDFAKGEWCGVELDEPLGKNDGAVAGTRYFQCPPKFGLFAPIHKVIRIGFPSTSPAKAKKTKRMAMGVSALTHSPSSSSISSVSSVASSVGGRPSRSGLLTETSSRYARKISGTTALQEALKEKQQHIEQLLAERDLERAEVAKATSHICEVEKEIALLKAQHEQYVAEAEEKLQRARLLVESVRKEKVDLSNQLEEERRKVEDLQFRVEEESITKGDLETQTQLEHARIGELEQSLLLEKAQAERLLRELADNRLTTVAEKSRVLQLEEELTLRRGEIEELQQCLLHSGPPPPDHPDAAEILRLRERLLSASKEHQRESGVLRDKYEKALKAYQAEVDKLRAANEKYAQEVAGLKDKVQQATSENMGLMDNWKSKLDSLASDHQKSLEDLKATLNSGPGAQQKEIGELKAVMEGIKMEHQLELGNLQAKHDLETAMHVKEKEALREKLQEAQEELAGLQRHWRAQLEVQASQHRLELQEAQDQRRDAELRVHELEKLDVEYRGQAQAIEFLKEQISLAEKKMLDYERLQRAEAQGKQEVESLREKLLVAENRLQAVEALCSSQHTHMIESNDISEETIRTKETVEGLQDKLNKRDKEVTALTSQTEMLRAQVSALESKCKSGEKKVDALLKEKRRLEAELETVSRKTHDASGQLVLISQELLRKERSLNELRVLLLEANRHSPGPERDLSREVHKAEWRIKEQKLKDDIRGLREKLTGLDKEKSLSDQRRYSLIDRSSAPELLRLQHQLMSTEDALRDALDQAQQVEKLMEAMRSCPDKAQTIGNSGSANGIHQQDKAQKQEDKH
UniProt P30622: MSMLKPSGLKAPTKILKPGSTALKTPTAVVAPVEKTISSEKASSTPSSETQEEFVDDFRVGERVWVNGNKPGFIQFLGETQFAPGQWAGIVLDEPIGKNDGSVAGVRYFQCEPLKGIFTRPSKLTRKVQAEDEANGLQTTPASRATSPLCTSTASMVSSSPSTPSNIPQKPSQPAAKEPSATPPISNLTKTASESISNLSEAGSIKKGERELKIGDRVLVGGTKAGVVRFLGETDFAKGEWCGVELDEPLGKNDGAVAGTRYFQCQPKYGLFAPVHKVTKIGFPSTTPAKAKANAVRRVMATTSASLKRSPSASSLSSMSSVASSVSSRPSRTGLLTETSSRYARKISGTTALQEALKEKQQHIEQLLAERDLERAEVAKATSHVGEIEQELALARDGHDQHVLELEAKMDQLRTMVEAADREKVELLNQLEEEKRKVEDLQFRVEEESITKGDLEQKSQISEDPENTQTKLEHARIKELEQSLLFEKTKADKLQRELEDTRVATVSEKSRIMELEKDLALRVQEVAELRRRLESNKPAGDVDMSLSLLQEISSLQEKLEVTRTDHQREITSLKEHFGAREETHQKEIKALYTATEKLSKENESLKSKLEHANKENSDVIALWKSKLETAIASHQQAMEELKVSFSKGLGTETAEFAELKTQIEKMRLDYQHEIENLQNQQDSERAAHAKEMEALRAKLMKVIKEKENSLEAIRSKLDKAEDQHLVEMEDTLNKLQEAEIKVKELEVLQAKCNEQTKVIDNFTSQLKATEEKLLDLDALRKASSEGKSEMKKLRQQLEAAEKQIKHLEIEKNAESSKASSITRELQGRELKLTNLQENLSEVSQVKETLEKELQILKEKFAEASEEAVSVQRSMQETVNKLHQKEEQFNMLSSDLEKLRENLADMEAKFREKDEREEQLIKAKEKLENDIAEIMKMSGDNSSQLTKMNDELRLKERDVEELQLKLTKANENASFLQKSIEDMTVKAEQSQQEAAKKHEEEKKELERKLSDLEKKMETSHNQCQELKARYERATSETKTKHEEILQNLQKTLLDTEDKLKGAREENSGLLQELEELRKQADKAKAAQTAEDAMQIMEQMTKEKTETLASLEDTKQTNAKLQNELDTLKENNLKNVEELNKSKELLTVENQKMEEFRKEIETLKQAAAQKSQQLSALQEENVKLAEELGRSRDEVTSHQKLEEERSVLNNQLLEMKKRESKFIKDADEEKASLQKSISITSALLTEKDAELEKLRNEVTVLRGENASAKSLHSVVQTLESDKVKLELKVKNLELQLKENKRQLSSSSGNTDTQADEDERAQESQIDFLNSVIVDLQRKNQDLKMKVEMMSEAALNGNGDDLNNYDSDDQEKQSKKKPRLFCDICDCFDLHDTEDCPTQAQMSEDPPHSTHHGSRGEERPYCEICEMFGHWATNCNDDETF
UniProt Q9Y240: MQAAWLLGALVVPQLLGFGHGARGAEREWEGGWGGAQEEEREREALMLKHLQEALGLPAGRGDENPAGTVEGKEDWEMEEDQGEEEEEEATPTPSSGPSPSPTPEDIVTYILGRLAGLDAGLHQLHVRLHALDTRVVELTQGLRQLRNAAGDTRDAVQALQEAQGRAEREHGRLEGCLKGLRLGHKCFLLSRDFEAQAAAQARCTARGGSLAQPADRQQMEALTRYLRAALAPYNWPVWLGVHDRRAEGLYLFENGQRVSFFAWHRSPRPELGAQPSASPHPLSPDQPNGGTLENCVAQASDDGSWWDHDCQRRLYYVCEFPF
UniProt Q9NX76: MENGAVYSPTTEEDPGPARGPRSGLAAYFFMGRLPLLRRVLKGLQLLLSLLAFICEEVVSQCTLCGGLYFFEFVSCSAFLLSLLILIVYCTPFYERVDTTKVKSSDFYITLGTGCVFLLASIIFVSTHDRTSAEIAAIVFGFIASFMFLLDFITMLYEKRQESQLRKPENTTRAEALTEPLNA
UniProt P62633: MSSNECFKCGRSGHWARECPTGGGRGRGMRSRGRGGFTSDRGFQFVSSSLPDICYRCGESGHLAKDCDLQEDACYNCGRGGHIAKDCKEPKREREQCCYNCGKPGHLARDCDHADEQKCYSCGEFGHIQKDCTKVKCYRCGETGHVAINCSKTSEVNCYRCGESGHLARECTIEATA
UniProt Q9UBY8, whole entry, looked up: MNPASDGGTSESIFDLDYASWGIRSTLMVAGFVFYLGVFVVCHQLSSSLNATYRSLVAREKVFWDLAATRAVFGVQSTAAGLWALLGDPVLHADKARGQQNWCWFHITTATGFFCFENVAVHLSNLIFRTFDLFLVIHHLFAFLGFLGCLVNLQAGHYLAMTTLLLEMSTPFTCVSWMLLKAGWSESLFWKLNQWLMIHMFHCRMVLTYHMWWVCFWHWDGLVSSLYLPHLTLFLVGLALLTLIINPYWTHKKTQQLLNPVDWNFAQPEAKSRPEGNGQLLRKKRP
UniProt Q2KHT3: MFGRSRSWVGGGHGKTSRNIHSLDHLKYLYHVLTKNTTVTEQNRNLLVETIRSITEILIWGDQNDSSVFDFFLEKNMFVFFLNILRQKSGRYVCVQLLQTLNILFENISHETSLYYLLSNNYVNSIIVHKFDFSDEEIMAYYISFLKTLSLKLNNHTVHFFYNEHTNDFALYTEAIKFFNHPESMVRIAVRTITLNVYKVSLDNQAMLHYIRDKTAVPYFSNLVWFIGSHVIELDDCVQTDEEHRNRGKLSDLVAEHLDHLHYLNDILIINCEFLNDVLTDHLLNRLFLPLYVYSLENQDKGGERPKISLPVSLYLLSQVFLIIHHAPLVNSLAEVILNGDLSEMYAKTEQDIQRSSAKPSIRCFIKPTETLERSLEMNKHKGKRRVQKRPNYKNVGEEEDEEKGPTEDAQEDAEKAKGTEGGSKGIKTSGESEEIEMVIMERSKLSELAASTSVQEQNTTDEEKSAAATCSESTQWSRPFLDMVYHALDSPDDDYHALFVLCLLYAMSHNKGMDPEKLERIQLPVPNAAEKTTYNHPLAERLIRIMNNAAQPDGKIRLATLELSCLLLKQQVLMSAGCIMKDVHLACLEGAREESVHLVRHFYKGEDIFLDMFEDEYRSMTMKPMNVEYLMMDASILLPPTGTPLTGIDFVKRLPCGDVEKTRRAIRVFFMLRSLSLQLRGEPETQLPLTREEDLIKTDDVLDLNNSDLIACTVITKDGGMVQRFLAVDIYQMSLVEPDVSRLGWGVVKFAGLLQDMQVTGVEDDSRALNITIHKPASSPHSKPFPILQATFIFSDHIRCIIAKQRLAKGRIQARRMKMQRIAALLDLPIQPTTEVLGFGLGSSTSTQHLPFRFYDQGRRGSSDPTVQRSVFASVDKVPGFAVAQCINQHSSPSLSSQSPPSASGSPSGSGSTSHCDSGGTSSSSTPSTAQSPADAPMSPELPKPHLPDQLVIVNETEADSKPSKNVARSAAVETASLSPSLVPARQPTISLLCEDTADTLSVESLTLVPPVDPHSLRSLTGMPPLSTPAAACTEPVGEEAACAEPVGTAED
UniProt Q99967: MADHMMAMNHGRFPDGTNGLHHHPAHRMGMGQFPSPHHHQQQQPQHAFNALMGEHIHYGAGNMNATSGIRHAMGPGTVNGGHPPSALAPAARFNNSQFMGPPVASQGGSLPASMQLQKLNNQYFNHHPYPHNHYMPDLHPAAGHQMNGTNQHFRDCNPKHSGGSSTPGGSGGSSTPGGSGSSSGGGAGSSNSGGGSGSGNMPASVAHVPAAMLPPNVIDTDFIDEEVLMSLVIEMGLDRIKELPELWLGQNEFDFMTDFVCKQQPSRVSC

compound: O=C(CCCCCCC(=O)Nc1ccccc1)NO [vorinostat]; test: log2 fold change, soluble protein after heating vs DMSO (PISA); higher = thermal stabilisation; K562 lysate, 10 uM; active = over 0.2 and 3.5 SD of the protein, either way, in both replicates (recomputed)
Outline: (§1)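 K562 pellets were dounce-homogenised in PBS pH 7.4 with 1 mM MgCl2, and the crude extract at 1 mg/mL protein was treated with 10 μM compound for 30 min. Aliquots were heated for 3 min across 48°C-58°C, pooled, and brought to 0.5% NP-40 at 4°C; soluble protein was the supernatant after 21,000xg for 90 min. Soluble protein was quantified by TMTpro 16plex LC-MS/MS with channel sums equalised, and reported as log2 fold change in thermal stability against DMSO controls, with values from duplicates.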

log2 fold change, inactive:
CLSTN3 isoform 2 (UniProt Q9BQT9) 0.164
CLCN5 isoform 2 (UniProt P51795) -0.055
CHTF8 (UniProt P0CG13) -0.154
CLN3 (UniProt Q13286) 0.046
CLK1 isoform 3 (UniProt P49759) 0.119
CHTF18 (UniProt Q8WVB6) -0.334
CMC4 (UniProt P56277) 0.108
CLDN12 (UniProt P56749) -0.086
CHPF (UniProt Q8IZ52) 0.083
CLIP2 (UniProt Q9UDT6) 0.033
CLIP1 isoform 2 (UniProt P30622) 0.167
CLEC11A (UniProt Q9Y240) 0.137
CMTM6 (UniProt Q9NX76) 0.138
CNBP (UniProt P62633) -0.539
CLN8 (UniProt Q9UBY8) -0.139
CLEC16A isoform 2 (UniProt Q2KHT3) 0.088
CLCN2 (UniProt P51788) 0.034
CHSY1 (UniProt Q86X52) 0.238
CHCHD5 (UniProt Q9BSY4) 0
CITED2 (UniProt Q99967) -0.004

compound: O=C(O)c1ccc2c(c1)nc(Nc1cccc(Cl)c1)c1ccncc12 [silmitasertib]; test: as above
Outline: as §1

log2 fold change, inactive:
CLSTN3 isoform 2 (UniProt Q9BQT9) 0
CLCN5 isoform 2 (UniProt P51795) -0.013
CHTF8 (UniProt P0CG13) 0.153
CLN3 (UniProt Q13286) -0.038
CLK1 isoform 3 (UniProt P49759) 0.045
CHTF18 (UniProt Q8WVB6) 0.258
CMC4 (UniProt P56277) 0.085
CLDN12 (UniProt P56749) 0.167
CHPF (UniProt Q8IZ52) 0.018
CLIP2 (UniProt Q9UDT6) -0.1
CLIP1 isoform 2 (UniProt P30622) -0.035
CLEC11A (UniProt Q9Y240) -0.098
CMTM6 (UniProt Q9NX76) -0.149
CNBP (UniProt P62633) 0.161
CLN8 (UniProt Q9UBY8) 0.045
CLEC16A isoform 2 (UniProt Q2KHT3) 0.098
CLCN2 (UniProt P51788) -0.218
CHSY1 (UniProt Q86X52) -0.207
CHCHD5 (UniProt Q9BSY4) 0.028
CITED2 (UniProt Q99967) -0.036
